The results in this text go back to PMC3742443.

Holding throughout (assay): co-IP; HeLa cells co-transfected with differentially tagged (FLAG and Myc) MYRF constructs; sonicated lysate incubated with FLAG antibody-coated beads for 2 h at 4°C; Sup and Bead fractions blotted
The target in assay [1] is C-terminal fragment generated by the auto-processing of MYRF (from MYRF-6M and MYRF-3F) (human) (UniProt Q9Y2G1).
The target in assay [2] is full-length MYRF, catalytic residue mutant K583A (human) (UniProt Q9Y2G1).
The target of assay [3] is full-length MYRF, leucine zipper mutant L683A (human) (UniProt Q9Y2G1).

Positions count from the first letter of the chain named. Names may count otherwise. These are yes or no findings as the source states them, for the method shown. In cells and extracts the contact can be indirect. Some entries that bind do so weakly or less than the wild type.

B1: C-terminal fragment generated by the auto-processing of MYRF (from MYRF-6M and MYRF-3F) (domain or fragment, UniProt Q9Y2G1-2 578-1111)
chain: SDLRAKEHVQEVDTTEQLKRISRMRLVHYRYKPEFAASAGIEATAPETGVIAQEVKEILPEAVKDTGDMVFANGKTIENFLVVNKERIFMENVGAVKELCKLTDNLETRIDELERWSHKLAKLRRLDSLKSTGSSGAFSHAGSQFSRAGSVPHKKRPPKVASKSSSVVPDQACISQRFLQGTIIALVVVMAFSVVSMSTLYVLSLRTEEDLVDTDGRSSQSFGTTQLRQSPLTTGLPGIQPSLLLVTTSLTSSAPGSAVRTLDMCSSHPCPVICCSSPTTNPTTGPSLGPSFNPGHVLSPSPSPSTNRSGPSQMALLPVTNIRAKSWGLSVNGIGHSKHHKSLEPLASPAVPFPGGQGKAKNSPSLGFHGRARRGALQSSVGPAEPTWAQGQSEPVPSLTSIQVLENSMSITSQYCAPGDACRPGNFTYHIPVSSGTPLHLSLTLQMNSSSPVSVVLCSLRSKEEPCEEGSLPQSLHTHQDTQGTSHRWPITILSFREFTYHFRVALLGQANCSSEALAQPATDYHFHFYRLCD
B1: the binding entry in assay [1] is given as “binds”.

B2: full-length MYRF, catalytic residue mutant K583A (protein, UniProt Q9Y2G1-2 1-1111)
chain: MHWLPAGHDINGALEPSNIDTSILEEYISKEDASDLCFPDISAPASSASYSHGQPAMPGSSGVHHLSPPGGGPSPGRHGPLPPPGYGTPLNCNNNNGMGAAPKPFPGGTGPPIKAEPKAPYAPGTLPDSPPDSGSEAYSPQQVNEPHLLRTITPETLCHVGVPSRLEHPPPPPAHLPGPPPPPPPPPHYPVLQRDLYMKAEPPIPHYAAMGQGLVPTDLHHTQQSQMLHQLLQQHGAELPTHPSKKRKHSESPPSTLNAQMLNGMIKQEPGTVTALPLHPTRAPSPPWPPQGPLSPGPGSLPLSIARVQTPPWHPPGAPSPGLLQDSDSLSGSYLDPNYQSIKWQPHQQNKWATLYDANYKELPMLTYRVDADKGFNFSVGDDAFVCQKKNHFQVTVYIGMLGEPKYVKTPEGLKPLDCFYLKLHGVKLEALNQSINIEQSQSDRSKRPFNPVTVNLPPEQVTKVTVGRLHFSETTANNMRKKGKPNPDQRYFMLVVALQAHAQNQNYTLAAQISERIIVRASNPGQFESDSDVLWQRAQVPDTVFHHGRVGINTDRPDEALVVHGNVKVMGSLMHPSDLRAAEHVQEVDTTEQLKRISRMRLVHYRYKPEFAASAGIEATAPETGVIAQEVKEILPEAVKDTGDMVFANGKTIENFLVVNKERIFMENVGAVKELCKLTDNLETRIDELERWSHKLAKLRRLDSLKSTGSSGAFSHAGSQFSRAGSVPHKKRPPKVASKSSSVVPDQACISQRFLQGTIIALVVVMAFSVVSMSTLYVLSLRTEEDLVDTDGRSSQSFGTTQLRQSPLTTGLPGIQPSLLLVTTSLTSSAPGSAVRTLDMCSSHPCPVICCSSPTTNPTTGPSLGPSFNPGHVLSPSPSPSTNRSGPSQMALLPVTNIRAKSWGLSVNGIGHSKHHKSLEPLASPAVPFPGGQGKAKNSPSLGFHGRARRGALQSSVGPAEPTWAQGQSEPVPSLTSIQVLENSMSITSQYCAPGDACRPGNFTYHIPVSSGTPLHLSLTLQMNSSSPVSVVLCSLRSKEEPCEEGSLPQSLHTHQDTQGTSHRWPITILSFREFTYHFRVALLGQANCSSEALAQPATDYHFHFYRLCD
Regarding B2, the binding entry in assay [2] is “binds”.

B3: full-length MYRF, leucine zipper mutant L683A (protein, UniProt Q9Y2G1-2 1-1111)
chain: B2 chain with A583K, L683A
For the molecule B3, in assay [3], the binding result is recorded as “binds”.
